How the values were obtained:
[1] = target: T1, 5-HT2A receptor (Homo sapiens, UniProt P28223); assay: CRE-Luc reporter gene functional assay in CHO-5HT2A cells; assay type: cell-based; set-up: expressed in transfected cells; host or cells: CHO cells (CHO-5HT2A), co-transfected with CRE-Luc reporter
[2] = target: T1, 5-HT2A receptor; assay: Radioligand (SPA) competition binding assay, [3H]Ketanserin

Chains of the proteins cited; added tags and fusions are not shown.
UniProt P28223, whole entry: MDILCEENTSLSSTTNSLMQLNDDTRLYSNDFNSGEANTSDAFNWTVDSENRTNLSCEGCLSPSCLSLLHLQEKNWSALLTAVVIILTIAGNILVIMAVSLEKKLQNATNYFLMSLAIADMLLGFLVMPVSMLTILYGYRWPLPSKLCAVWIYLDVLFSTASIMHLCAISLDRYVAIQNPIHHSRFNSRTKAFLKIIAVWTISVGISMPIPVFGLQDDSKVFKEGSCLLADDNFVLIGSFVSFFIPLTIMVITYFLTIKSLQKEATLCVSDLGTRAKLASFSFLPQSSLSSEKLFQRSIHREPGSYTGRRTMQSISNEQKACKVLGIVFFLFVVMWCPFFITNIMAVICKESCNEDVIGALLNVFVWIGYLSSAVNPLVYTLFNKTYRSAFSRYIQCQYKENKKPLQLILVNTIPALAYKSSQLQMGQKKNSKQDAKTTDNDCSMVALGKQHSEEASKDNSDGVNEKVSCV

O=C(O)COCCN1CCN(C(c2ccccc2)c2ccc(Cl)cc2)CC1 (stereo not drawn) [Cetirizine]
> 10 µM: IC50 [1] | Kb [1] | Ki [2]

Source: patent US8551718B2 (Suven Life Science Limited, priority 2009, dated 2013)
